Assay results taken from paper PMC7819943, “Rice protein-binding microarrays: a tool to detect cis-acting elements near promoter regions in rice”.
The other results are listed elsewhere or left out.

Protein sequences, listed by entry. Tags and fused reporters are not part of them.
UniProt Q0JBA9, entry or part of it: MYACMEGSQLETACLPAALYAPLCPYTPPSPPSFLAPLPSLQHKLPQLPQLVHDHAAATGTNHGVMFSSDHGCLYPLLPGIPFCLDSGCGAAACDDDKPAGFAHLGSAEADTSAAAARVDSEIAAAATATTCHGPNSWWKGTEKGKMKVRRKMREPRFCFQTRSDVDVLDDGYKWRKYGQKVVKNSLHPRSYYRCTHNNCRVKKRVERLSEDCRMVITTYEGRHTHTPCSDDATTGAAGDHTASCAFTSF

These sequences were tested against OsWRKY34 (Oryza sativa, UniProt Q0JBA9 1-250) (assay: protein-binding microarray (RPBM); PBS, 2% BSA, 51.3 ng/ul salmon testes DNA, 50 uM zinc acetate, 200 nM TF, 25 C, 1 h; high values mean tight binding). Conditions: protein: recombinant; tags: N-terminal polyhistidine and DsRed monomer fusion (pET32a); label: CyDye5-dUTP incorporated in the synthesized complementary strand; 3' TTTTT single-stranded linker to array surface; dsDNA, one strand shown.
Summary of the method: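 Using Ni–NTA, transcription factors fused N-terminally to polyhistidine and DsRed were purified after expression in E. coli BL21-CodonPlus. These were incubated at 200 nM with a blocked, double-stranded custom Agilent array for 1 h at 25 °C in a buffer containing 50 µM zinc acetate, and the array was washed. The binding signal is per-feature fluorescence intensity (arbitrary units) on an Axon 4000B scanner.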

Row | Sequence | binding signal
1 | CCTAATGACGAACTTATATGCCTACTTTGTGATCTATCTCCGGAGTCACCTAGTGCAG | 9110 fluorescence intensity (a.u.)
2 | CACGCCATTTTTTCGCTCGCTCGCTCGCCTCGTGCCCACGCGGAGTCACCTAGTGCAG | 14100 fluorescence intensity (a.u.)
3 | TGTTTATTGTGGTACTGGTTGGTACGATTCATCATTTCAACGGAGTCACCTAGTGCAG | 8400 fluorescence intensity (a.u.)
4 | CTTTTGTTTTTCGTTAAAGGCATATATTTTGCGACCCCAACGGAGTCACCTAGTGCAG | 8280 fluorescence intensity (a.u.)
5 | ATTTTTAAAGCAACTTTCTTGTACATTTCTTTGCAAAGCGCGGAGTCACCTAGTGCAG | 8410 fluorescence intensity (a.u.)
6 | GCGGTGGTGGTGGGCTTAGTGGAGGCGGAGGCGGCTGAGGCGGAGTCACCTAGTGCAG | 17400 fluorescence intensity (a.u.)
7 | GATCCTAACACTAAGTCGTCAACCGTGAACACTTCCTTGACGGAGTCACCTAGTGCAG | 8730 fluorescence intensity (a.u.)
8 | CCTCGTTGCCATCTGTCTTAACCAATCTTGTTGCTGAAAGCGGAGTCACCTAGTGCAG | 9690 fluorescence intensity (a.u.)
9 | CCCTTTCTCTCTGTTGTTGCAGTCTTGCAGCTGCCCGATTCGGAGTCACCTAGTGCAG | 8240 fluorescence intensity (a.u.)
10 | ATATTAGGTGGTATCAAATTTTCATCTACGGGGTTGTTTACGGAGTCACCTAGTGCAG | 8090 fluorescence intensity (a.u.)
11 | CTCGCCCCATTTCCTCTCGCCGCCGGCGCGTCGGCGCCGCCGGAGTCACCTAGTGCAG | 8990 fluorescence intensity (a.u.)
12 | TGAATCTTTGGTCATCTAGTTGTTCATTAGTATCATTTACCGGAGTCACCTAGTGCAG | 9670 fluorescence intensity (a.u.)
13 | ACTACTCACTCTTCATTGCTTTTTTTTTTCTCTCTCTAGCCGGAGTCACCTAGTGCAG | 9600 fluorescence intensity (a.u.)
14 | TTGACCTTTTTAAAACATTTTTGACCGTTCGTCTTATTCACGGAGTCACCTAGTGCAG | 10600 fluorescence intensity (a.u.)
15 | CTAGCCCTTGCTTCATTTTACGTGTTGGGAGGGAAGGGGTCGGAGTCACCTAGTGCAG | 10900 fluorescence intensity (a.u.)
16 | CATGTTTTCTTAGAGCTCTCTTTCATATTTATCTATTTCTCGGAGTCACCTAGTGCAG | 11300 fluorescence intensity (a.u.)
17 | GGCGGGGCGGTGTGTTACAGGGGAATTACTCGGGTCAACACGGAGTCACCTAGTGCAG | 8200 fluorescence intensity (a.u.)
18 | CCTATTTTTGGCCCAGAACTCCAATTCCATCACATACAATCGGAGTCACCTAGTGCAG | 8370 fluorescence intensity (a.u.)
19 | TCGTTGGTGGGTAGGTGGTGGAGATGGTGGTGGCGGCGGGCGGAGTCACCTAGTGCAG | 15600 fluorescence intensity (a.u.)
20 | TTTTCCCGTATTCCATGAGCCCCAAAAAATACGGTATTCCCGGAGTCACCTAGTGCAG | 8200 fluorescence intensity (a.u.)
21 | ACCTCTATCCAGATTCATTGTACTAGAGTATGTCACATCCCGGAGTCACCTAGTGCAG | 8680 fluorescence intensity (a.u.)
22 | CAACTTTTACTAGCGTGTCAAATTCTTTTCCGAAATTCAACGGAGTCACCTAGTGCAG | 8700 fluorescence intensity (a.u.)
23 | TTCCTTTCGTGCTATCGCCTATTCGCCTCCGCCGCCCTTCCGGAGTCACCTAGTGCAG | 10900 fluorescence intensity (a.u.)
24 | TTTCACGGGTTTGATGGTTTTCACTGGATATTTCCACTGCCGGAGTCACCTAGTGCAG | 8730 fluorescence intensity (a.u.)
25 | GGGTTCATCAAGCTTGACTCTTGACAACTTGTCTCGTACTCGGAGTCACCTAGTGCAG | 8580 fluorescence intensity (a.u.)
26 | ACCTCCTGTTTGTTTATGGTTTCCCTAAATTTGCAAACGCCGGAGTCACCTAGTGCAG | 8400 fluorescence intensity (a.u.)
27 | CTGGTTGTTTGATGTTCGCTTATTCCCTTCTGAATTAACTCGGAGTCACCTAGTGCAG | 8770 fluorescence intensity (a.u.)

Single entries from the list:
Entry for TTCCTTTCGTGCTATCGCCTATTCGCCTCCGCCGCCCTTCCGGAGTCACCTAGTGCAG under binding signal: 10900 fluorescence intensity (a.u.)
Entry for GGGTTCATCAAGCTTGACTCTTGACAACTTGTCTCGTACTCGGAGTCACCTAGTGCAG under binding signal: 8580 fluorescence intensity (a.u.)

(list continues)

Row | Sequence | binding signal
28 | GAATTTGTCTTTGCGTTTACAGCCGCTCCTTCAAGACCCACGGAGTCACCTAGTGCAG | 8130 fluorescence intensity (a.u.)
29 | TGATTCCTGTGTCAATTAGCACTAGCCACACACATATTTACGGAGTCACCTAGTGCAG | 8980 fluorescence intensity (a.u.)
30 | CGAGAGATCGTTGCCCTCCGTATCCACTACTACTACACTCCGGAGTCACCTAGTGCAG | 8310 fluorescence intensity (a.u.)
31 | TAACATGTAACACGAATCTGTACAAGCTCCTTATTCGTCGCGGAGTCACCTAGTGCAG | 8890 fluorescence intensity (a.u.)
32 | GAATTTTCACCCGCATCTGCCCTGACCCATCCCACCTCCACGGAGTCACCTAGTGCAG | 9010 fluorescence intensity (a.u.)
33 | CACCGTCGCGCACCTGTTTGAATCCCACTCGTGGGCCCCACGGAGTCACCTAGTGCAG | 8410 fluorescence intensity (a.u.)
34 | GTGTTGTCGTTGGAGTAGATGATGATTTTACTAGCTAGTTCGGAGTCACCTAGTGCAG | 9210 fluorescence intensity (a.u.)
35 | ACCTGGCTACAAATCTGTAGCCCACTTTCTTCTCTCTCTCCGGAGTCACCTAGTGCAG | 8390 fluorescence intensity (a.u.)
36 | TGCAGAACACTAGACATCACAGCCCAAGTCTTACCCACCACGGAGTCACCTAGTGCAG | 8320 fluorescence intensity (a.u.)
37 | CGCCTCTGTCCGTTCCGCCGTGGTTTGCGCCGCCCGTCCGCGGAGTCACCTAGTGCAG | 9070 fluorescence intensity (a.u.)
38 | ACTCCGTTCCGTTTAAACTCAACTAGTAGTACCCTTGTTGCGGAGTCACCTAGTGCAG | 9570 fluorescence intensity (a.u.)
39 | TTTGATTTTGGTCAAAGTCAAACTACTCTAAGTTTGACTACGGAGTCACCTAGTGCAG | 13400 fluorescence intensity (a.u.)
40 | TGTAAGTCTCTTTTGTGTCAAGATATCGCCTCCATGAATACGGAGTCACCTAGTGCAG | 8170 fluorescence intensity (a.u.)
41 | GGTGGTGGGGATCAGGAGGGACGCGGCGAGCCGCGAGCTGCGGAGTCACCTAGTGCAG | 14100 fluorescence intensity (a.u.)
42 | GTAATTATTAATTCTTTTCGTATCATTTGATTTATTGTTACGGAGTCACCTAGTGCAG | 8800 fluorescence intensity (a.u.)
43 | TCTCTTCCCGTCACCTACCTCTCCTTCTGATTTGGGCGCGCGGAGTCACCTAGTGCAG | 9340 fluorescence intensity (a.u.)
44 | TGAGTTTTTGTTTGCATTGTTTGACCACTCTTCTTATTCACGGAGTCACCTAGTGCAG | 10700 fluorescence intensity (a.u.)
45 | TTCTTCTTCTTCTTCTTCGGCGGCGGCGGCGGCGGCGATGCGGAGTCACCTAGTGCAG | 10500 fluorescence intensity (a.u.)
46 | GCCCAACCCGCCCGTGAGGTGACTCTGCCACTGGGTTTTTCGGAGTCACCTAGTGCAG | 9540 fluorescence intensity (a.u.)
47 | TGGTGTTGTTTATGTTCTCTATATCGATGAAAGATGTTAACGGAGTCACCTAGTGCAG | 9980 fluorescence intensity (a.u.)
48 | GCATGTCCTTTTTCCGATCGCAATATCCAAACGCTCCACTCGGAGTCACCTAGTGCAG | 9390 fluorescence intensity (a.u.)
49 | CTCACTTCAGCTCGCTCGCTCTCACTACTACTCGCTGGCACGGAGTCACCTAGTGCAG | 9950 fluorescence intensity (a.u.)
50 | CGTCTACCTCTAGCTCTCTGTGAGTTGCCATTAGGATTTTCGGAGTCACCTAGTGCAG | 9570 fluorescence intensity (a.u.)
51 | ATCTCTTCCCGTCTTTCTCGACAAATTTGGGATTATGCCACGGAGTCACCTAGTGCAG | 8250 fluorescence intensity (a.u.)
52 | GGGTACGACTTATCTGATGGTGAAATTTTCCTTTTTCTAACGGAGTCACCTAGTGCAG | 8890 fluorescence intensity (a.u.)
53 | GCTTCGAGGGGAGGGGCTCTAGCGGTTCTGGTTGAGGAAGCGGAGTCACCTAGTGCAG | 12100 fluorescence intensity (a.u.)
54 | AAAAATGTGGGAGGATGTATGTATGTGTGGAGGAGGGGTACGGAGTCACCTAGTGCAG | 11200 fluorescence intensity (a.u.)

Part of the list above, comma-delimited.
Row,Sequence,binding signal
34,GTGTTGTCGTTGGAGTAGATGATGATTTTACTAGCTAGTTCGGAGTCACCTAGTGCAG,9210 fluorescence intensity (a.u.)
47,TGGTGTTGTTTATGTTCTCTATATCGATGAAAGATGTTAACGGAGTCACCTAGTGCAG,9980 fluorescence intensity (a.u.)
